Values quoted from earlier work in patent publication EP2168965A1, “Substituted imidazopyridine, imidazopyrazine, imidazopyridazine and imidazopyrimidine derivatives as melanocortin-4 receptor antagonists” (Santhera Pharmaceuticals (Schweiz) AG, priority 2008, dated 2010).

Settings: control compounds of the Caco-2 assay; Zhao et al. 2001; cited from earlier work

For `CC(C)NCC(O)COc1ccc(CC(N)=O)cc1` (stereo not shown) [atenolol], the human absorption is listed as “approximately 50%”.
